Experimental data reported in publication PMC7293329.
No constants are given. Whether binding was seen depends on the method and setting.

Legend:
[1] = target: Uso1 N-terminal globular head region (Uso1^GHR), residues 1-726 (Saccharomyces cerevisiae) (UniProt P25386); test: crystal structure; two crystal forms (Uso1_open 2.7 A, Uso1_closed 2.94 A), space group P3(1)21, one molecule in the asymmetric unit; both purified
[2] = target: Uso1 N-terminal globular head region (Uso1^GHR), residues 1-726 (Saccharomyces cerevisiae) (UniProt P25386); test: SEC; analytical gel filtration, Superdex 200 10/300 GL, 20 mM Tris-HCl pH 8.0, 200 mM NaCl, 5 mM beta-mercaptoethanol, 0.5 mL/min; high concentration (10 mg/mL); both purified
[3] = target: Uso1 N-terminal globular head region (Uso1^GHR), residues 1-726 (Saccharomyces cerevisiae) (UniProt P25386); test: SEC-MALS; Superdex 200 10/300 GL, 20 mM Tris-HCl pH 8.0, 200 mM NaCl, 5 mM beta-mercaptoethanol; 1 mg protein injected, 0.4 mL/min; both purified
[4] = target: Uso1 N-terminal globular head region (Uso1^GHR), residues 1-726 (Saccharomyces cerevisiae) (UniProt P25386); test: SEC; analytical gel filtration, Superdex 200 10/300 GL, 20 mM Tris-HCl pH 8.0, 200 mM NaCl, 5 mM beta-mercaptoethanol, 0.5 mL/min; low concentration (1 mg/mL); both purified

B1: Uso1 N-terminal globular head region (Uso1^GHR), residues 1-726 (domain or fragment, UniProt P25386 1-726)
chain: MDIIQGLIQQPKIQSVDETIPTLCDRVENSTLISDRRSAVLGLKAFSRQYRESVIASGLKPLLNTLKRDYMDEDSVKAILETILILFIRGDGHDDLTRGWISQQSRLQNGKYPSPLVMKQEKEQVDQFSLWIADALTQSEDLIHLLVEFWEIDNFHIRLYTIQLLEAVMATRPLKARSALISLPTSISTMVSLLDDMHEPIRDEAILLLMAVVNDSPHVQKLVAFENIFERLFSIIEEEGGLRGSLVVNDCLSLINNILKYNTSNQTLFLETGNLPKLAHLLSEPISQDEVFFWNDQRIVNINTALDIVSLTVEPGNTVTTKHQNALLDSSVLMVVLRLAFFHNIPKKVRPVALLTAANMVRSNEHAQLEFSKIDVPYFDPSLPVNSTANGGPIKLIPVVSILINWMLYANSVHTFDTRVACSRLLKAYFMDNFDLQRDFLLKQVQLCNNSTNNVGDNAKENGGSNKSDKESDSDKDTDGKDGTEYEGSFKANLFEVLLNYDAELNLNPFKLFFTTDIFMFFFQQDHKYSEELREITRNVTTGNDLEDEEPLKAIQTISELLTTSLTAADIRIPISYLTFLIYWLFGDFKATNDFLSDKSVIKSLLSFSYQIQDEDVTIKCLVTMLLGVAYEFSSKESPFPRKEYFEFITKTLGKDNYASRIKQFKKDSYFSKVDMNEDSILTPELDETGLPKVYFSTYFIQLFNENIYRIRTALSHDPDEEPINK
B1 was tested, and the binding [1] was “no binding”, the binding [2] was “no binding (tested: 10 mg/mL)” and the binding [3] was “no binding (tested: 1 mg injected)”. The binding [4] was “no binding (tested: 1 mg/mL)”.
